According to patent publication US20020132364A1, “Quant-screentm chemiluminescent assays” (priority 2001, published 2002):

Test system: NIH/3T3 cells
Conditions: NIH/3T3, 26 hours in full medium, various concentrations

CN[C@@H]1C[C@H]2O[C@@](C)([C@@H]1OC)n1c3ccccc3c3c4c(c5c6ccccc6n2c5c31)C(=O)NC4 [staurosporine]
growth inhibition (Quant-Screen Mammalian Assay signal, FIG. 12): correlation of growth inhibition to the concentration of staurosporine
